Data reported in article doi:10.1101/2024.02.28.582498.
Results are given in words; binding and its absence hold for the method and conditions named. Binding seen in cells or lysates may run through a third protein. Binding calls can cover weak binding; strength is not graded here.

Protein sequences, listed by entry. Tags and fused reporters are not part of them.
UniProt P0CY32: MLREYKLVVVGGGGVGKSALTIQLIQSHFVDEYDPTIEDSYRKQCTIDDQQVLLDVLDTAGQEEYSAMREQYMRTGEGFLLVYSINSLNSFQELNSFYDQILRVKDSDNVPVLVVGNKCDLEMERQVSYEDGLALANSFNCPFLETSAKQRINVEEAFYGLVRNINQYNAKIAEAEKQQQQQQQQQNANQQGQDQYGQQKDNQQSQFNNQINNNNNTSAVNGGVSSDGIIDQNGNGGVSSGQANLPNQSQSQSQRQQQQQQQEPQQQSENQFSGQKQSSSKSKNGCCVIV

How the values were obtained:
[1] = target: CaGpi2-6x-His (C. albicans GPI-GnT subunit Gpi2, His6 at its C-terminus) (C. albicans) (UniProt Q5A6L6); assay: pull-down
[2] = target: CaGpi2-6x-His (C. albicans GPI-GnT subunit Gpi2, His6 at its C-terminus) (C. albicans) (UniProt Q5A6L6); assay: FRET or BRET

binding [1]: binds | binding [2]: binds
Substance: CaRas1 (from UniProt P0CY32 1-290)
